Key:
[1] = general procedure: Fmoc solid-phase peptide synthesis; Fmoc-Ala-NovaSyn TGA; details: whole synthesis
[2] = general procedure: Fmoc solid-phase peptide synthesis; pre-loaded Fmoc-Ala-NovaSyn TGA (Tentagel) resin; details: whole synthesis; for final HPLC purity: 214 nm

Substance | crude mass ([1]; scale 0.05 mmol) [mg] | crude yield [2] [%] | isolated yield [2] [%] | final HPLC purity [2] [%] | crude mass ([1]; scale 0.069 mmol) [mg]
Amyloid β (1-25)-S1-(27-42) [S1=(ArgPro)Ser] | 80 | 34 | 13 | >95 | –
Amyloid β (1-25)S1-(27-36)S2-(38-42) [S1=(H2^+)Ser; S2=(ArgPro)Ser] | – | 30 | 10.8 | >96 | 100
